Assay results from PubChem BioAssay AID504444 (National Center for Advancing Translational Sciences (NCATS), 2011).
Among all 360,000 compounds or so, about 7,500 (2.1%) were called active. This list was built around the results that the source calls inconclusive (neither active nor inactive); the mix of calls is not that of the screen. Calls come from the whole dose curve; as a rule, active = well fitted inhibition curve with a large enough effect; inconclusive = small, poorly fitted or top-dose-only effect, or effect the other way; inactive = flat fitted curve, though single readings scatter. Where the call is inconclusive, the potency comes from a doubtful curve fit.

Assay: Nrf2 qHTS screen for inhibitors; note: nearly all actives have a fitted effect of over 60% in size
Conditions: A549 ARE-Fluc reporter, luciferase luminescence, 18-24 h; series mostly up to 46 µM
In short: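 In this cell-based qHTS, ARE-driven firefly luciferase in A549 cells reports Nrf2 activity; the luminescent signal after BugLite lysis is the measured value, with a prior CellTiter-Fluor read for cell health.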
Potency is the fitted concentration of half-maximal effect.

SMILES | Potency
CNc1ccc(C=C2C=Cc3ccccc32)cc1 | inconclusive: 16.4 µM [activator, partial curve]
COc1ccc(CCN2C(=O)c3[nH]nc(-c4ccccc4O)c3C2c2ccccc2)cc1OC (stereo not drawn) | inconclusive: 32.6 µM [falling, single point]
COc1ccccc1N(Cc1ccccc1)S(=O)(=O)c1cccc(C(=O)Nc2cccc(C)n2)c1 | inconclusive: 29.1 µM [falling, single point]
CCO[C@@H]1OC(C(=O)NCc2ccccc2)=C[C@H](c2cn(C(C)=O)c3ccccc23)[C@H]1CCCO | inconclusive: 25.9 µM [falling, partial curve, poor fit]
CCC(=O)N1c2ccc(S(=O)(=O)CCC(=O)Nc3ccc(Br)c(C)c3)cc2CC1C (stereo not drawn) | inconclusive: 29.1 µM [falling, single point]
CN(C)S(=O)(=O)N1CCCC(C(=O)c2ccc(-c3ccccc3)c(F)c2)C1 (stereo not drawn) | inconclusive: 23.1 µM [falling, partial curve, poor fit]
C=CCOc1ccc(CN(C)C(=O)c2ccc(CNS(=O)(=O)c3ccc(C)c(C)c3)cc2)cc1 | active: 9.2 µM
O=S(=O)(c1cccc(F)c1)N1CCC(Oc2ccc(-n3cnnn3)cc2)CC1 | inconclusive: 29.1 µM [falling, single point]
COc1ccccc1NC(=O)C(=O)NCCC1CCCCN1S(=O)(=O)c1cccs1 (stereo not drawn) | inconclusive: 29.1 µM [falling, partial curve, poor fit]
CCOCCCNC(=O)c1c(NC(=O)Cc2coc3ccc(C)cc23)sc2c1CCC2 | inconclusive: 13 µM [falling, partial curve]
Cc1c(CC(=O)NCCCC(=O)O)c(=O)oc2cc3occ(-c4ccccc4)c3cc12 | inactive
Cc1ccccc1OCC(=O)NCC(=O)OCc1ccc(Br)cc1 | inactive
COc1ccccc1CN1CCC(CNC(=O)c2cnn(-c3ccc(Cl)cc3)c2C2CCN(C(=O)OC(C)(C)C)CC2)CC1 | inconclusive: 29.1 µM [falling, single point]
O=C(CCc1nc2ccccc2[nH]1)N1CCN(C(=O)c2ccco2)CC1 | inactive
Cc1ccc(S(=O)(=O)Nc2ccc(Cl)cc2)cc1NC(=O)Cn1cnc2c1c(=O)n(C)c(=O)n2C | inconclusive: 5.8 µM [falling, partial curve, poor fit]
COc1ccc2oc(C(=O)OCC(=O)NC3(C#N)CCCC3)c(C)c2c1 | inactive
Cc1ccc(-c2noc(CN(C)C(=O)c3ccoc3C)n2)cc1 | inactive
O=C(N/N=C/c1ccc([N+](=O)[O-])s1)c1cccc(Br)c1 | active: 20.6 µM
Cc1nonc1NC(=O)CSc1nc2cc(Cl)ccc2c2c1CCCC2 | inconclusive: 2.31 µM [activator, single point]
COc1ccc2[nH]cc(CCNC(=O)CCC3CCCCC3)c2c1 | inconclusive: 6.51 µM [activator, partial curve, poor fit]
Cc1ccc(Cn2ccc(NC(=O)c3nn(C)cc3[N+](=O)[O-])n2)cc1 | inactive
CCOc1ccc(S(=O)(=O)NCCC(=O)NCC(c2ccco2)N2CCCCC2)cc1 (stereo not drawn) | inactive
CN(C/C=C/c1ccccc1)Cc1cccc2ccccc12 | inconclusive: 20.6 µM [falling, partial curve]

SMILES | Potency
COc1ccc(N2C(=O)CC(Sc3ncn[nH]3)C2=O)c(OC)c1 (stereo not drawn) | inactive
Cc1cc(=O)oc2cc(OCC(=O)OCC(=O)Nc3ccc(C(N)=O)cc3)ccc12 | inactive
Nn1c(SCc2cc([N+](=O)[O-])cc3c2OCOC3)nnc1-c1cccnc1 | inconclusive: 3.26 µM [activator, partial curve, poor fit]
Cc1cc(N/N=C/c2ccc(O)c(C)c2O)nc(-c2ccccc2O)n1 | inconclusive: 20.6 µM [falling, single point]
CCc1ccc(CNC(=O)c2c(C)oc3ncn(CC(C)C)c(=O)c23)cc1 | inconclusive: 14.6 µM [falling, partial curve, poor fit]
CCOC(=O)c1c(-c2ccc(OC)cc2)oc2ccc(OCC(N)=O)cc12 | inconclusive: 14.6 µM [falling, partial curve, poor fit]
CN1CCC(OC(=O)c2cccc(Br)c2)CC1 | inconclusive: 6.51 µM [activator, partial curve, poor fit]
Cc1csc(NC(=O)c2ccc(C)s2)n1 | inconclusive: 23.1 µM [activator, single point]
COc1ccc(CNC(=O)CCCn2c(=O)c3cccn3c3cccnc32)cc1 | inactive
C=CCn1c(SCC(=O)Nc2nc3ccccc3s2)nc(O)c(CC)c1=O | inconclusive: 29.1 µM [activator, single point]
O=C(CCl)N(c1ccccc1)C1CCCCC1 | inconclusive: 18.4 µM [falling, single point]
O=C(C1CCCN(c2ncnc3c2nc2n3CCCCC2)C1)N1CCN(c2ccccc2)CC1 (stereo not drawn) | inactive
COc1ccc(-c2noc(CN(C)Cc3ccc(C)o3)n2)cc1 | inconclusive: 14.6 µM [activator, partial curve]
COc1cc(-c2nnc(-c3ccccc3)o2)cc(OC)c1OC | inactive
CCc1cc(C(=O)N2CCN(S(=O)(=O)c3ccccc3F)CC2)sc1C | inconclusive: 29.1 µM [falling, single point]
CC1CCN(c2c(NCc3ccc(C(=O)N4CCN(C5CCCCC5)CC4)cc3)c(=O)c2=O)CC1 | inactive
NC(=O)CC1NC(=O)c2cc([N+](=O)[O-])cc(I)c2OCCC(C(N)=O)NC(=O)[C@@H]2CCCN2C1=O (stereo partly drawn) | inconclusive: 1.84 µM [falling, partial curve, poor fit]
CCc1cccc(C)c1Nc1c(-c2cccc(O)c2)nc2nc(C)cc(C)n12 | inconclusive: 29.1 µM [falling, single point]
O=C(NC(=S)Nc1ccccn1)c1cccc([N+](=O)[O-])c1 | inconclusive: 4.61 µM [activator, full curve]
O=S1(=O)NCC23CCC(CC21)O3 (stereo not drawn) | inactive
Cc1nc(N2CCOCC2)c2c(C)c(C(=O)Nc3ccc(C(F)(F)F)cc3)sc2n1 | active: 9.2 µM
Cc1ccc2cc(CN(Cc3ccc4c(c3)OCO4)Cc3nnnn3Cc3ccco3)c(=O)[nH]c2c1C | inconclusive: 29.1 µM [falling, single point]
COC(=O)N/N=C/c1cc(C)n(-c2ccc(F)cc2)c1C | inconclusive: 16.4 µM [activator, partial curve, poor fit]

Sorted by count of non-hydrogen atoms (ascending): some entries from above
SMILES | Potency
CCc1cc(C(=O)N2CCN(S(=O)(=O)c3ccccc3F)CC2)sc1C | inconclusive: 29.1 µM [falling, single point]
CCc1ccc(CNC(=O)c2c(C)oc3ncn(CC(C)C)c(=O)c23)cc1 | inconclusive: 14.6 µM [falling, partial curve, poor fit]
Cc1ccc2cc(CN(Cc3ccc4c(c3)OCO4)Cc3nnnn3Cc3ccco3)c(=O)[nH]c2c1C | inconclusive: 29.1 µM [falling, single point]

(next part)

SMILES | Potency
Cc1ccc(CN=C2Nc3ccccc3CS2)cc1 | inconclusive: 2.59 µM [activator, partial curve, poor fit]
COc1ccc2nc(-c3ccccc3)[nH]c2c1 | inconclusive: 0.326 µM [activator, full curve, poor fit]
COc1ccc(OC)c(NC(=O)Cc2c(C(=O)O)n(C)c3ccc(C)cc23)c1 | inactive
O=C(N/N=C/C=C\c1cccc([N+](=O)[O-])c1)c1cccnc1 | inconclusive: 18.4 µM [activator, single point]
COc1ccc(C2c3c(n(CCc4ccccc4)cnc3=N)Oc3ccc4ccccc4c32)cc1OC (stereo not drawn) | inactive
Cc1nn(CC(=O)N2CCOCC2)c(=O)c2c1sc1ccccc12 | inactive
COCCn1c(=O)[nH]c2cc(C(=O)N3CCN(c4ccc(OC)cc4)CC3)ccc2c1=O | inconclusive: 32.6 µM [falling, partial curve, poor fit]
COc1ccc(C2C(C#N)=C(N)Oc3cc(O)ccc32)cc1Cl (stereo not drawn) | inactive
CN(C)S(=O)(=O)c1cccc(NC(=O)C2Cc3ccccc3CN2C(=O)c2ccccc2)c1 (stereo not drawn) | inconclusive: 29.1 µM [activator, single point]
CCCn1nc(NC(=O)c2cccs2)c2cc3cc(C)ccc3nc21 | active: 16.4 µM
CC(=O)c1c(C)[nH]c(C(=O)COc2ccc3ccc(=O)oc3c2)c1C | inconclusive: 20.6 µM [falling, partial curve, poor fit]
C=CCN(Cc1nc(-c2cc(OC)c3c(c2)OCO3)oc1C)C1CCS(=O)(=O)C1 (stereo not drawn) | inconclusive: 6.51 µM [falling, partial curve]
OC(CC1CC12c1ccccc1-c1ncccc12)(c1ccccc1)c1ccccc1 (stereo not drawn) | inconclusive: 29.1 µM [falling, single point]
Cc1cccc(NC(=O)CSc2nc3ccc(NC(=O)COc4ccccc4F)cc3s2)c1 | inconclusive: 20.6 µM [falling, partial curve]
COc1ccc(CCN(C)C(=O)CSc2ncnc3sccc23)cc1OC | inconclusive: 20.6 µM [falling, partial curve, poor fit]
O=C(NC(=O)c1c(F)cccc1F)Nc1ccccc1SC(F)F | inconclusive: 29.1 µM [activator, single point]
CCCc1c(C(=O)Nc2cc(C(C)(C)C)on2)cnn1-c1ccccc1 | active: 6.51 µM
Cc1cccc(-c2noc(CN(C)C(=O)COc3ccccc3)n2)c1 | inactive
COc1ccc(N2C(=S)N(C(=O)c3ccccc3)C(=Nc3ccccc3)C2=Nc2ccccc2)cc1 | inconclusive: 1.03 µM [activator, partial curve]
CS(=O)(=O)c1nc(-c2ccccc2)cc(C(F)(F)F)n1 | active: 23.1 µM
Cc1ccc(C(=O)NCc2ccco2)cc1S(=O)(=O)Nc1cccc(Cl)c1 | active: 23.1 µM
COc1ccc(NC(=O)c2c(NC(=O)Cc3ccccc3)sc3c2CCCC3)cc1 | inconclusive: 29.1 µM [falling, single point]
